Test results reported in patent US20250163160A1.
These are yes or no findings as the source states them, for the method shown. Some entries that bind do so weakly or less than the wild type.

Chains of the proteins cited; added tags and fusions are not shown. Lines headed by an entry give the natural chain unless they say otherwise; changes in a name come on top.
UniProt Q86Z14: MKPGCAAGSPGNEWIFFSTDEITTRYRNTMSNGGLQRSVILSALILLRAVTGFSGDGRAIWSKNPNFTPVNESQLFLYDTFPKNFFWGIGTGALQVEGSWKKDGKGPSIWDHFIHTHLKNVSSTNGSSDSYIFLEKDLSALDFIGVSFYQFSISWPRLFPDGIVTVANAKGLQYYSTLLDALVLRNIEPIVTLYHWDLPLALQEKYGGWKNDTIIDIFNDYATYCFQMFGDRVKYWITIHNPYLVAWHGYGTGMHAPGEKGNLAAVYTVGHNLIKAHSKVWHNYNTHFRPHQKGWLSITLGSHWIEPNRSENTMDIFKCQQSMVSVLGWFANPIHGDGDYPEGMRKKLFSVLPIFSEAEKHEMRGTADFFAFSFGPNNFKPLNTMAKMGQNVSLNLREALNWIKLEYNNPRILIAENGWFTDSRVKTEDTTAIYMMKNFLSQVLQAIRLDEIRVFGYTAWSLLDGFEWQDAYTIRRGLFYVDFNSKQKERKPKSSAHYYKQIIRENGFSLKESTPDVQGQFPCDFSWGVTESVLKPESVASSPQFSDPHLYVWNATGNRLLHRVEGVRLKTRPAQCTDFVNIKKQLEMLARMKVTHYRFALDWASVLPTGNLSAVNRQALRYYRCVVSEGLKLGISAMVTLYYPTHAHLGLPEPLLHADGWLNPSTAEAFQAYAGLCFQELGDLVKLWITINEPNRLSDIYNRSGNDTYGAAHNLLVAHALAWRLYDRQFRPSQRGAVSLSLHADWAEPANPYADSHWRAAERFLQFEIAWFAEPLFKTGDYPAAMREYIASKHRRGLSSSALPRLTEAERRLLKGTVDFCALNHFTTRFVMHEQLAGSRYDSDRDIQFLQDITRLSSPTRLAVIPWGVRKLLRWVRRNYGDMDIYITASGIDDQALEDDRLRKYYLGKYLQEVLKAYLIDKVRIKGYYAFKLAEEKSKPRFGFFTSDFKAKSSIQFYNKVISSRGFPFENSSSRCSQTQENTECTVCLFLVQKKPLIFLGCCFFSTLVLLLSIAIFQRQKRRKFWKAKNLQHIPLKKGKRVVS
UniProt Q9NSA1: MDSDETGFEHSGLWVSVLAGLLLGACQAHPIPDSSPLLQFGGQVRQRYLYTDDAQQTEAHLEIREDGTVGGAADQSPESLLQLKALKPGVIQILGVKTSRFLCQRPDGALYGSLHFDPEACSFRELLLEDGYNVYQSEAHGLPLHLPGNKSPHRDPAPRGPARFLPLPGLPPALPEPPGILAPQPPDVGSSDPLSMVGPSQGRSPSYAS

What was measured:
[1] = biological target: soluble human β-Klotho (human) (UniProt Q86Z14); assay: Biacore: biotinylated FGF21 immobilised on the chip, 10 nM soluble β-Klotho injected alone or mixed with 100 nM antibody
[2] = biological target: soluble human β-Klotho (human) (UniProt Q86Z14); assay: Biacore sandwich format (Example 8): 17D8 immobilised, soluble human β-Klotho (or FGFR1c/β-Klotho ECD-Fc complex) captured on it, FGF21 injected about 775-1375 s; concentration not given

Fibroblast Growth Factor 21 (FGF21), human (from UniProt Q9NSA1 29-209) (ligand)
binding [1]: binds
binding [2]: binds
